Experimental data: patent US20140056935A1 (priority 2011, published 2014)

Assay: general procedure: Fmoc solid-phase peptide synthesis; NovaSyn TGR; DIPCI/HOBt; double coupling with HBTU/HOBt/DIPEA
Details: whole synthesis, scale 0.20 mmol

With “PEPTIDE1{W.M.E.W.D.R.E.I.N.N.Y.T.S.L.I.H.S.L.I.E.E.S.Q.N.Q.Q.E.K.N.E.Q.E.L.L.R.E.R.E.R.E.G}$$$$V2.0” the isolated mass was 5.3 mg and the isolated yield was “yield 1%”.

Some peptides are written in HELM: one residue between dots, names in brackets for other building blocks, links after the first $.
